PubChem BioAssay AID504784 | Drosophila RNAi Screening Center | 2011
Purpose: 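Genome-wide knock-down for genes giving too much or too little stored lipid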 (primary screen). Cells: Drosophila Kc167 embryonic cells. Reagents: long dsRNA against Drosophila genes, about 250 ng dsRNA per well. Time to read-out: 4 days. Treatment: cells fed 400 µM oleic acid bound to BSA. Measured: 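Microscope images give a droplet-to-nucleus area ratio, taken as log and converted to a screen-wide B-score; higher values mean greater lipid storage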. Reading the numbers: droplet/nuclear area B-score: higher = more stored lipid (overstorage).
In all, the deposit lists about 17,000 reagents; below is an unselected part of those that have a named target and a result. 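Each column is one replicate's B-score; the combined score over replicates was not deposited, so single values may mislead.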 A plus sign joins genes that one reagent is predicted to hit. Further read-outs or replicates are left out here.

predicted target | DRSC id | droplet/nuclear area B-score, replicate 1 | droplet/nuclear area B-score, replicate 2
Utx (GeneID 34377) | DRSC02872 | -0.334 | -0.292
bbg (GeneID 39583) | DRSC11077 | -0.244 | -0.15
bbg (GeneID 39583) | DRSC11079 | 2.48 | 0.673
RpL38 (GeneID 3355144) | DRSC07818 | 4.12 | 4.94
spin (GeneID 45380) | DRSC07176 | 0.482 | -2.45
spin (GeneID 45380) | DRSC22271 | 0.123 | -0.781
CG2111 (GeneID 31995) | DRSC18205 | -3.46 | 0.439
dos (GeneID 38321) | DRSC07992 | 0.212 | 1.52
dos (GeneID 38321) | DRSC08713 | 0.673 | -1.05
dos (GeneID 38321) | DRSC23285 | -3 | -1.53
CG15471 (GeneID 31412) | DRSC18054 | 1.82 | 0.996
CG15728 (GeneID 32214) | DRSC19694 | 0.556 | 0.308
CG15728 (GeneID 32214) | DRSC22868 | -2.33 | -1.22
CG4218 (GeneID 34848) | DRSC01939 | 0.242 | 0.648
Inos (GeneID 35671) | DRSC07655 | 0.0425 | -0.0559
Tg (GeneID 34093) | DRSC03047 | -1.38 | -0.344
CG14013 (GeneID 33786) | DRSC02344 | 0.89 | -0.811
CG42813 + CG42814 | DRSC15939 | -0.791 | 5.96
CG42813 + CG42814 | DRSC15940 | -2.11 | -0.66
CG32071 (GeneID 39246) | DRSC22298 | 0.287 | 0.46
ktub (GeneID 37400) | DRSC04551 | -0.0539 | 0.576
Prp6 (GeneID 40064) | DRSC10724 | 0.0536 | -0.0464
Prp6 (GeneID 40064) | DRSC21773 | 0.384 | -1.1
woc (GeneID 47249) | DRSC15928 | -1.24 | –
TfIIFalpha (GeneID 40790) | DRSC12608 | 0.126 | -0.0174
ng4 (GeneID 31301) | DRSC18805 | -0.786 | -0.965
Pepck2 (GeneID 37130) | DRSC06013 | -0.0638 | -0.332
Slc25A46b (GeneID 35081) | DRSC02888 | 0.112 | -0.0959
CG9328 (GeneID 35344) | DRSC03203 | 2.84 | -0.892
CycB3 (GeneID 42971) | DRSC16618 | -1.74 | 0.244
CG4324 (GeneID 37830) | DRSC04462 | -0.284 | 0.851
Usp12-46 (GeneID 42702) | DRSC16175 | 3.09 | -0.893
Sys1 (GeneID 41023) | DRSC14372 | -1.45 | -0.398
Trissin (GeneID 41890) | DRSC14994 | -3.42 | -3.59
Tmem43 (GeneID 38881) | DRSC10964 | 2.57 | -0.156
CG16721 (GeneID 31520) | DRSC18113 | 0.5 | -0.992
CG17575 (GeneID 36414) | DRSC06682 | 0.077 | -1.32
CG7886 (GeneID 41775) | DRSC16333 | 0.402 | 0.0251
CG10646 (GeneID 39426) | DRSC09764 | 0.812 | –
Osi9 (GeneID 40763) | DRSC12278 | -0.141 | 0.31
CG3626 (GeneID 31377) | DRSC18318 | 1.31 | 0.798
Rip11 (GeneID 32850) | DRSC20000 | -0.448 | -1.29
CG30413 (GeneID 246601) | DRSC04001 | -1.09 | 0.701
TBC1d7 (GeneID 42869) | DRSC15985 | 0.443 | 1.01
Sap130 (GeneID 39455) | DRSC09680 | 0.00168 | -0.0654
Dis3l2 (GeneID 38034) | DRSC08496 | -0.937 | 1.2
CtsF (GeneID 40628) | DRSC12056 | 0.163 | -0.805
CtsF (GeneID 40628) | DRSC12195 | 2.31 | 0.23
CtsF (GeneID 40628) | DRSC12196 | -0.172 | 0.032
bdg (GeneID 36747) | DRSC07136 | 0.138 | -1.69
CG18476 (GeneID 41404) | DRSC15281 | 0.868 | -0.565
CG5071 (GeneID 43090) | DRSC15710 | 0.165 | 0.00401
CG5071 (GeneID 43090) | DRSC22570 | 1.08 | 1.03
Crg-1 (GeneID 43900) | DRSC22882 | 0.03 | -1.72
Myo10A (GeneID 32028) | DRSC19834 | 1.4 | 0.91
Myo10A (GeneID 32028) | DRSC19837 | 0.566 | 1.4
CG4362 (GeneID 42410) | DRSC15567 | -1.42 | 0.0292
CG13622 (GeneID 42923) | DRSC14624 | -0.507 | 1.15
CG34056 (GeneID 38106) | DRSC08374 | -2.2 | 0.486
hog (GeneID 318105) | DRSC19057 | 0.159 | 1.23
Hsp27 (GeneID 39078) | DRSC11190 | -0.124 | –
Mcad (GeneID 38864) | DRSC09871 | -0.35 | -0.68
Chchd3 (GeneID 43672) | DRSC16981 | 3.13 | 2.31
Son (GeneID 41159) | DRSC16400 | 0.605 | -0.392
CG8910 (GeneID 36896) | DRSC07414 | 3.74 | 0.689
Fpgs2 (GeneID 326159) | DRSC00600 | 0.517 | -1.24
CG33465 (GeneID 3885587) | DRSC05587 | -0.297 | 1.04
Lpin (GeneID 35790) | DRSC07241 | -0.012 | -1.26
CG3092 (GeneID 37682) | DRSC04336 | 0.838 | 0.703
Oatp58Dc (GeneID 37545) | DRSC04363 | 0.606 | 1.14
CG15459 (GeneID 33036) | DRSC20530 | 0.00784 | -0.00388
CG15459 (GeneID 33036) | DRSC21383 | 0.974 | -0.00742
Mkp + CG34140 | DRSC08585 | -1.75 | -4.52
CG1663 (GeneID 36012) | DRSC06613 | -1.08 | 0.231
CG1663 (GeneID 36012) | DRSC22488 | 0.331 | 0.0778
ens (GeneID 38491) | DRSC08454 | -0.198 | 0.305
ap (GeneID 35509) | DRSC04917 | -0.935 | -1.59
sle (GeneID 41262) | DRSC14557 | -0.0413 | 0.319
Nepl3 (GeneID 326172) | DRSC02681 | -0.0902 | -0.862
CG43367 (GeneID 38505) | DRSC08299 | -0.0295 | 0.348
CG43367 (GeneID 38505) | DRSC08301 | 0.25 | 1.1
CG43367 (GeneID 38505) | DRSC08309 | 0.188 | 0.522
CG17121 (GeneID 42721) | DRSC15176 | -0.159 | -0.982
CG6569 (GeneID 42573) | DRSC16067 | -0.456 | 0.0806
bor (GeneID 53565) | DRSC16915 | -2.93 | -0.685
Ubr3 (GeneID 31713) | DRSC17987 | 0.00443 | 0.451
Ubr3 (GeneID 31713) | DRSC17997 | -1.75 | -1.36
CG15194 (retired record) (GeneID 32091) | DRSC19642 | 0.048 | 1.97
CG15194 (retired record) (GeneID 32091) | DRSC19777 | -2.07 | 0.743
CG8419 (GeneID 34118) | DRSC03087 | -0.54 | 0.0441
side-V (GeneID 37679) | DRSC04188 | -0.925 | -1.45
side-V (GeneID 37679) | DRSC04189 | -0.0861 | -0.254
side-V (GeneID 37679) | DRSC22266 | 0.0304 | 3.22
stai (GeneID 33863) | DRSC22235 | 0.178 | -1.97
CG15696 (GeneID 42469) | DRSC15118 | 0.0223 | 0.0345
DEF8 (GeneID 39381) | DRSC09840 | 0.298 | 1.13
CG11601 (GeneID 33197) | DRSC00318 | -0.86 | -1.43
Kap-alpha1 (GeneID 40160) | DRSC11356 | 1.29 | 1.17
Upf3 (GeneID 37792) | DRSC04092 | 0.253 | -0.576
Polr3H (GeneID 39310) | DRSC10817 | 0.0225 | -0.329
CG34325 (GeneID 32656) | DRSC19802 | -0.714 | -0.612
CG34325 (GeneID 32656) | DRSC20200 | -0.154 | 0.00135
ND-30 (GeneID 38378) | DRSC08243 | -0.254 | 2
aqrs (GeneID 43396) | DRSC14724 | 0.0355 | -0.634
GstE9 (GeneID 246581) | DRSC06679 | -1.04 | 1.56

Targets above whose gene name begins with M or m:
predicted target | DRSC id | droplet/nuclear area B-score, replicate 1 | droplet/nuclear area B-score, replicate 2
Myo10A (GeneID 32028) | DRSC19834 | 1.4 | 0.91
Myo10A (GeneID 32028) | DRSC19837 | 0.566 | 1.4
Mcad (GeneID 38864) | DRSC09871 | -0.35 | -0.68
Mkp + CG34140 | DRSC08585 | -1.75 | -4.52
